Some of these results come from one statement about several compounds together.
Key:
Assay type in all cases: in vivo
Kunming mice [1] = assay: Influence on hypnosis effect with pentobarbital sodium doses below the threshold (25 mg/kg i.p.); settings: sodium pentobarbital 25 mg/kg i.p. 60 min after drug; observed 30 min; low, middle and high dose; P<0.05˜P<0.001
Description: (§1) 1.1 Animals for experiments: Kunming mice, weighting 18.9˜22.2 g for females, and 20.2˜23.0 g for males, licensed under SCXK-(Ji) 2007-0003, and provided by The experimental animal centre, Jilin University.
(§2) 1.2 Chemicals for experiments: The flavone derivatives provided in Examples 1-41 and the flavanone derivatives provided in Examples 42-71 are all formulated with 0.5% sodium carboxymethyl cellulose as solutions with required concentrations.
(§3) 1.3 Grouping of animals: 6420 animals are employed in the entire experiments and 2140 of the animals are randomly divided into 214 groups by gender, and the […] include: control group, low dosage group for each experimental drugs (25 mg/kg), medium dosage group for each experimental drugs (50 mg/kg), and high dosage group for each experimental drugs (100 mg/kg). Each group has 10 animals and either female or male constitutes half of the group. The groups are used in behavior observation and voluntary action observation. The other 4280 animals are randomly divided into 214 groups by gender respectively (the grouping way is the same with that described above). Each group has 20 animals and either female or male constitutes half of the group. In each group, 10 animals are used in hypnosis experimentations with pentobarbital sodium doses below the threshold, and the other 10 animals are used hypnosis experimentations with pentobarbital sodium doses at the threshold.
1.5.3 Influence on Hypnosis Effect with Mice Pentobarbital Sodium Doses Below the Threshold
(§4) The drug is intragastric administered in mice for single time, 2 animals of each group are given drug per round with the dosing interval of 40 min (±5 min). According to the administration round, in 60 min (±5 min) of each round after the drug administration, the animals were intraperitoneally injected 0.3% sodium pentobarbital 25 mg/kg, respectively. Sleep condition of the animals were observed within 30 min (under sleep determination standard of loss of righting reflex more than 1 min). After animals undergo loss of righting reflex, number of the animals is recorded, to calculate sleep percentage.
(§5) Number of autonomic activities is detected by leneve Test for homogeneity of variance. If the homogeneity of variance is good (P>0.05), statistical analysis is performed with ANOVA. If ANOVA have statistical significance (P≦0.05), Dunnett's test for multiple comparisons analysis is performed. Number of animals of sleeping mice is applied of ANOVA. Incidence rate of animal asleep is applied of χ2 test. Sleep latency and sleep duration are recorded in min, averaged by group, represented by standard deviation, and undergo statistical analysis using ANOVA.

Kunming mice [2] = assay: Influence on autonomic activity of normal mice (ZIL-2 mice autonomic activity meter, counts within 10 min); settings: 1 h and 2 h after drug administration; low, middle and high dose (25, 50, 100 mg/kg); P<0.05˜P<0.001, dose-related
Description: as §1, §2, §3
1.4 Experimental instrument and agents: ZIL-2 mice autonomic activity meter, production of Institute of Materia Medica of Chinese Academy of Medical Sciences; pentobarbital sodium, Lot: 100808, 25 g/bottle, Beijing Chemical Reagent Company equipment imported from Germany.
1.5.2 Influence on Autonomic Activity of Normal Mice
After observing the general behavior, in 1 h, 2 h and 24 h after drug administration, respectively, ZIL-2 mice autonomic activity meter is put respectively. Number of autonomic activities of each group of mice is measured within 10 min. Results among groups are compared.
as §5

Kunming mice [3] = assay: Influence on hypnosis effect with pentobarbital sodium doses at the threshold (50 mg/kg i.p.); settings: sodium pentobarbital 50 mg/kg i.p. 60 min after drug; low, middle and high dose; P<0.05˜P<0.001
Description: as §1, §2, §3
1.5.4 Influence on Hypnosis Effect with Mice Pentobarbital Sodium Doses at the Threshold
as §4, with “50” for “25”, “Time to fall asleep (sleep latency) and sleep duration” for “Sleep condition”, “recorded” for “observed”, “under” for “30 min (under”, “min.” for “min). After animals undergo loss of righting reflex, number of the animals is recorded, to calculate sleep percentage.”
as §5

COc1ccc(-c2cc(=O)c3cc(OC)c(OC)c(OC)c3o2)cc1OC [Example 27]
incidence of sleep compared with the control group (Kunming mice [1]): increased at different level | autonomic activities compared with the control group (Kunming mice [2]): significantly reduced | time to fall asleep (sleep latency) compared with the control group (Kunming mice [3]): reduced at different level

COc1ccc(C2CC(=O)c3c(cc(OC)c(OC)c3OC)O2)cc1 (centres unmarked) [Example 65, 5,6,7,4′-tetra methoxyl-flavanone]
incidence of sleep compared with the control group (Kunming mice [1]): increased at different level | time to fall asleep (sleep latency) compared with the control group (Kunming mice [3]): reduced at different level

CC=Cc1cc(I)cc2c1OC(c1cccc(C(=O)O)c1)CC2=O (centres unmarked) [Example 60]
incidence of sleep compared with the control group (Kunming mice [1]): increased at different level | autonomic activities compared with the control group (Kunming mice [2]): significantly reduced | time to fall asleep (sleep latency) compared with the control group (Kunming mice [3]): reduced at different level

COc1cc(OC)c2c(=O)cc(-c3ccc(OC)c(OC)c3)oc2c1 [Example 36]
incidence of sleep compared with the control group (Kunming mice [1]): increased at different level | autonomic activities compared with the control group (Kunming mice [2]): significantly reduced | time to fall asleep (sleep latency) compared with the control group (Kunming mice [3]): reduced at different level

N#CSc1ccc(-c2cc(=O)c3cc(N)c(F)c(C#N)c3o2)cc1O [Example 28]
incidence of sleep compared with the control group (Kunming mice [1]): increased at different level | autonomic activities compared with the control group (Kunming mice [2]): significantly reduced | time to fall asleep (sleep latency) compared with the control group (Kunming mice [3]): reduced at different level

COc1cc(OC)c2c(=O)cc(-c3ccc(OC)c(OC)c3)oc2c1 [Example 7, 5,7,3′,4′-tetramethoxyl-flavone]
incidence of sleep compared with the control group (Kunming mice [1]): increased at different level | autonomic activities compared with the control group (Kunming mice [2]): significantly reduced | time to fall asleep (sleep latency) compared with the control group (Kunming mice [3]): reduced at different level

CCCc1cc(-c2cc(=O)c3c(I)cc(CCS(=O)(=O)O)cc3o2)cc(C(N)=O)c1C(=O)O [Example 23]
incidence of sleep compared with the control group (Kunming mice [1]): increased at different level | autonomic activities compared with the control group (Kunming mice [2]): significantly reduced | time to fall asleep (sleep latency) compared with the control group (Kunming mice [3]): reduced at different level

CCc1cccc2c1C(=O)CC(c1cc(F)cc(C(=O)O)c1)O2 (centres unmarked) [Example 53]
incidence of sleep compared with the control group (Kunming mice [1]): increased at different level | autonomic activities compared with the control group (Kunming mice [2]): significantly reduced | time to fall asleep (sleep latency) compared with the control group (Kunming mice [3]): reduced at different level

COc1cc(OC)cc(C2CC(=O)c3c(OC)cc(OC)cc3O2)c1 (centres unmarked) [Example 49]
incidence of sleep compared with the control group (Kunming mice [1]): increased at different level | autonomic activities compared with the control group (Kunming mice [2]): significantly reduced | time to fall asleep (sleep latency) compared with the control group (Kunming mice [3]): reduced at different level

CC=Cc1cc(-c2cc(=O)c3c(CCCCC)cc(C(=O)O)cc3o2)cc(C(=O)O)c1C#N [Example 26]
incidence of sleep compared with the control group (Kunming mice [1]): increased at different level | autonomic activities compared with the control group (Kunming mice [2]): significantly reduced | time to fall asleep (sleep latency) compared with the control group (Kunming mice [3]): reduced at different level

COc1ccc(C2CC(=O)c3c(O)cccc3O2)cc1O (centres unmarked) [Example 62]
incidence of sleep compared with the control group (Kunming mice [1]): increased at different level | autonomic activities compared with the control group (Kunming mice [2]): significantly reduced | time to fall asleep (sleep latency) compared with the control group (Kunming mice [3]): reduced at different level

C=Cc1cc(C(N)=O)cc2oc(-c3ccc(N)c(C4CCSC4)c3)cc(=O)c12 (centres unmarked) [Example 38]
incidence of sleep compared with the control group (Kunming mice [1]): increased at different level | autonomic activities compared with the control group (Kunming mice [2]): significantly reduced | time to fall asleep (sleep latency) compared with the control group (Kunming mice [3]): reduced at different level

C=Cc1cc2c(=O)cc(-c3ccc(CC)c(N)c3)oc2c(C2CCSC2)c1C(N)=O (centres unmarked) [Example 30]
incidence of sleep compared with the control group (Kunming mice [1]): increased at different level | autonomic activities compared with the control group (Kunming mice [2]): significantly reduced | time to fall asleep (sleep latency) compared with the control group (Kunming mice [3]): reduced at different level

CC=Cc1c(C(=O)O)cc2c(=O)cc(-c3ccc(F)c(C#N)c3)oc2c1C(=O)O [Example 34]
incidence of sleep compared with the control group (Kunming mice [1]): increased at different level | autonomic activities compared with the control group (Kunming mice [2]): significantly reduced | time to fall asleep (sleep latency) compared with the control group (Kunming mice [3]): reduced at different level

O=c1cc(-c2cc(O)c(Oc3ccccc3)c(CCCCCCCCCCCCCCCCCCCCCl)c2)oc2cc(C#Cc3ccccc3)cc([N+](=O)[O-])c12 [Example 16]
incidence of sleep compared with the control group (Kunming mice [1]): increased at different level | autonomic activities compared with the control group (Kunming mice [2]): significantly reduced | time to fall asleep (sleep latency) compared with the control group (Kunming mice [3]): reduced at different level

N#Cc1cc(-c2cc(=O)c3c(N)cc(F)cc3o2)ccc1O [Example 37]
incidence of sleep compared with the control group (Kunming mice [1]): increased at different level | autonomic activities compared with the control group (Kunming mice [2]): significantly reduced | time to fall asleep (sleep latency) compared with the control group (Kunming mice [3]): reduced at different level

O=C1CC(c2ccc(O)c(O)c2)Oc2cc(O)cc(O)c21 (centres unmarked) [Example 71]
incidence of sleep compared with the control group (Kunming mice [1]): increased at different level | autonomic activities compared with the control group (Kunming mice [2]): significantly reduced | time to fall asleep (sleep latency) compared with the control group (Kunming mice [3]): reduced at different level

CCCc1ccc(C2CC(=O)c3c(O)cc([N+](=O)[O-])cc3O2)cc1OC (centres unmarked) [Example 61]
incidence of sleep compared with the control group (Kunming mice [1]): increased at different level | autonomic activities compared with the control group (Kunming mice [2]): significantly reduced | time to fall asleep (sleep latency) compared with the control group (Kunming mice [3]): reduced at different level

6,7,8,4′-tetramethoxyl-flavone [Example 6]
incidence of sleep compared with the control group (Kunming mice [1]): increased at different level | autonomic activities compared with the control group (Kunming mice [2]): significantly reduced | time to fall asleep (sleep latency) compared with the control group (Kunming mice [3]): reduced at different level

CC=Cc1cc(C(=O)O)c2c(=O)cc(-c3ccc(C#N)c(C(=O)O)c3)oc2c1 [Example 40]
incidence of sleep compared with the control group (Kunming mice [1]): increased at different level | autonomic activities compared with the control group (Kunming mice [2]): significantly reduced | time to fall asleep (sleep latency) compared with the control group (Kunming mice [3]): reduced at different level

CCCc1cc(C2CC(=O)c3c(cc(O)cc3[N+](=O)[O-])O2)cc(-c2ccccc2)c1C1CCSC1 (centres unmarked) [Example 51]
incidence of sleep compared with the control group (Kunming mice [1]): increased at different level | autonomic activities compared with the control group (Kunming mice [2]): significantly reduced | time to fall asleep (sleep latency) compared with the control group (Kunming mice [3]): reduced at different level

C=Cc1cc(C2CC(=O)c3cc(C(N)=O)c(C4CCSC4)c(Oc4ccccc4)c3O2)ccc1N (centres unmarked) [Example 57]
incidence of sleep compared with the control group (Kunming mice [1]): increased at different level | autonomic activities compared with the control group (Kunming mice [2]): significantly reduced | time to fall asleep (sleep latency) compared with the control group (Kunming mice [3]): reduced at different level

CC=Cc1cc(C(=O)O)c2c(=O)cc(-c3cc(C#N)c(F)c(C(=O)O)c3)oc2c1 [Example 22]
incidence of sleep compared with the control group (Kunming mice [1]): increased at different level | autonomic activities compared with the control group (Kunming mice [2]): significantly reduced | time to fall asleep (sleep latency) compared with the control group (Kunming mice [3]): reduced at different level

CCCCCc1cc(-c2cc(=O)c3c(CC)cc(CCCCCCl)cc3o2)cc(O)c1Cc1ccccc1 [Example 19]
incidence of sleep compared with the control group (Kunming mice [1]): increased at different level | autonomic activities compared with the control group (Kunming mice [2]): significantly reduced | time to fall asleep (sleep latency) compared with the control group (Kunming mice [3]): reduced at different level

C=Cc1ccc(-c2cc(=O)c3cc(C#N)c(Cc4ccccc4)c(C=CC)c3o2)cc1[N+](=O)[O-] [Example 32]
incidence of sleep compared with the control group (Kunming mice [1]): increased at different level | autonomic activities compared with the control group (Kunming mice [2]): significantly reduced | time to fall asleep (sleep latency) compared with the control group (Kunming mice [3]): reduced at different level

Source: patent US9669003B2, “Use of flavone and flavanone derivatives in preparation of sedative and hypnotic drugs” (priority 2012, dated 2017)
